The assay concerns the target Saccharomyces cerevisiae Vip1 (residues 188-1088) (S. cerevisiae) (UniProt Q06685). Briefly: SEC; Superdex 200 column (HiLoad 26/600 or increase 10/300 GL), 150 mM NaCl, 20 mM HEPES pH 7.0; both purified. (Size exclusion chromatography separates by hydrodynamic size, large species first.)

Protein sequences, listed by entry. Tags and fused reporters are not part of them. Residues count along the entry.
UniProt Q06685, residues 188-1088: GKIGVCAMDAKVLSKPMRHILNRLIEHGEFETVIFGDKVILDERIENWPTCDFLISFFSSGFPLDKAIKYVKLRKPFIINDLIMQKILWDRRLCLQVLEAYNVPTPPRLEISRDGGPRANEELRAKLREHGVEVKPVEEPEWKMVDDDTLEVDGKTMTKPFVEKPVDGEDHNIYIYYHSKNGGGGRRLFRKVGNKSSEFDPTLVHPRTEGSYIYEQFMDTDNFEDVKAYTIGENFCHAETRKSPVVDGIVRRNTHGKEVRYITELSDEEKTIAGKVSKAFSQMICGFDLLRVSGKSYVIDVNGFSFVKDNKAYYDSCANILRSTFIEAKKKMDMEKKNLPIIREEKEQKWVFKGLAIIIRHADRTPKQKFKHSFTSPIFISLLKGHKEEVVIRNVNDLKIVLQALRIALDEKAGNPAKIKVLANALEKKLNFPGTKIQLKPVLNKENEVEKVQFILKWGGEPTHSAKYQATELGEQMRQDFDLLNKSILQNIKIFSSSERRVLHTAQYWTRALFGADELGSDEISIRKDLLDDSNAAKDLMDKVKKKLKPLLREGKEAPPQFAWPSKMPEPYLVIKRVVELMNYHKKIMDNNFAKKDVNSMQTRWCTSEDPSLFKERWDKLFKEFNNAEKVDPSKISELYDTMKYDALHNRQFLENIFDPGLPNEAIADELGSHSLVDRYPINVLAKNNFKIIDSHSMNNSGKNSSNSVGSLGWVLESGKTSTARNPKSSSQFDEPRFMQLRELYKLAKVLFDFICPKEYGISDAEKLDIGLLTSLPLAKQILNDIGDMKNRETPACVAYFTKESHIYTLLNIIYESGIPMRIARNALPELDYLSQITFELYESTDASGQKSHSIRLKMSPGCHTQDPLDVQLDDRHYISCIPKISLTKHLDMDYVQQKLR

No constants are given. Whether binding was seen depends on the method and setting.

Regarding “Saccharomyces cerevisiae Vip1 (residues 188-1088) (from UniProt Q06685 188-1088) (enzyme)”, the binding entry is recorded as “no binding”.

Source of the values: paper PMC6731061.
